# Data: publication PMC8384837
# Substitutions are numbered along the chain they refer to. Some of the results follow. At the low end of the ranking the order means little.
# Experiments:
# Conditions in all cases: yeast three-hybrid, YBZ-1, SC-Leu-His + 0.5 mM 3-AT, 4 days
# [1] = target: T1, PUM1 PUF domain R6-AYG N1043A + Q1047G (UniProt Q14671)
# T1 sequence: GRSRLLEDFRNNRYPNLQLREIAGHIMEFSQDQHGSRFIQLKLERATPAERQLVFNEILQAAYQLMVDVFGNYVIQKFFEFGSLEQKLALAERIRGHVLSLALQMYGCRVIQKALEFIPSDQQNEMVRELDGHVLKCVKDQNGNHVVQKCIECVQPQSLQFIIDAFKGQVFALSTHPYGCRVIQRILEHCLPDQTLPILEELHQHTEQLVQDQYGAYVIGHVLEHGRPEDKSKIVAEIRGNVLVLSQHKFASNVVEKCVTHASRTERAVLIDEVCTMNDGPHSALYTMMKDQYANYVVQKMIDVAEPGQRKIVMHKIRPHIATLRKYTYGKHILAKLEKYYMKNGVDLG
# [2] = target: T2, PUM1 PUF domain R6-CFK N1043C + Y1044F + Q1047K (UniProt Q14671)
# T2 sequence: T1 sequence with A216C, Y217F, G220K
# [3] = target: T3, PUM1 PUF domain R6-CFR N1043C + Y1044F + Q1047R (UniProt Q14671)
# T3 sequence: T1 sequence with A216C, Y217F, G220R
# [4] = target: T4, PUM1 PUF domain R6-CFY N1043C + Y1044F + Q1047Y (UniProt Q14671)
# T4 sequence: T1 sequence with A216C, Y217F, G220Y
# [5] = target: T5, PUM1 PUF domain R6-CHR N1043C + Y1044H + Q1047R (UniProt Q14671)
# T5 sequence: T1 sequence with A216C, Y217H, G220R
# [6] = target: T6, PUM1 PUF domain R6-CWC N1043C + Y1044W + Q1047C (UniProt Q14671)
# T6 sequence: T1 sequence with A216C, Y217W, G220C
# [7] = target: T7, PUM1 PUF domain R6-CWS N1043C + Y1044W + Q1047S (UniProt Q14671)
# T7 sequence: T1 sequence with A216C, Y217W, G220S
# [8] = target: T8, PUM1 PUF domain R6-CWV N1043C + Y1044W + Q1047V (UniProt Q14671)
# T8 sequence: T1 sequence with A216C, Y217W, G220V
# [9] = target: T9, PUM1 PUF domain R6-CWW N1043C + Y1044W + Q1047W (UniProt Q14671)
# T9 sequence: T1 sequence with A216C, Y217W, G220W
# [10] = target: T10, PUM1 PUF domain R6-CYV N1043C + Q1047V (UniProt Q14671)
# T10 sequence: T1 sequence with A216C, G220V
# [11] = target: T11, PUM1 PUF domain R6-DWG N1043D + Y1044W + Q1047G (UniProt Q14671)
# T11 sequence: T1 sequence with A216D, Y217W
# [12] = target: T12, PUM1 PUF domain R6-DWV N1043D + Y1044W + Q1047V (UniProt Q14671)
# T12 sequence: T1 sequence with A216D, Y217W, G220V
# [13] = target: T13, PUM1 PUF domain R6-EWV N1043E + Y1044W + Q1047V (UniProt Q14671)
# T13 sequence: T1 sequence with A216E, Y217W, G220V
# [14] = target: T14, PUM1 PUF domain R6-FHR N1043F + Y1044H + Q1047R (UniProt Q14671)
# T14 sequence: T1 sequence with A216F, Y217H, G220R
# [15] = target: T15, PUM1 PUF domain R6-FRI N1043F + Y1044R + Q1047I (UniProt Q14671)
# T15 sequence: T1 sequence with A216F, Y217R, G220I
# [16] = target: T16, PUM1 PUF domain R6-FWS N1043F + Y1044W + Q1047S (UniProt Q14671)
# T16 sequence: T1 sequence with A216F, Y217W, G220S
# [17] = target: T17, PUM1 PUF domain R6-FYA N1043F + Q1047A (UniProt Q14671)
# T17 sequence: T1 sequence with A216F, G220A
# [18] = target: T18, PUM1 PUF domain R6-FYS N1043F + Q1047S (UniProt Q14671)
# T18 sequence: T1 sequence with A216F, G220S
# [19] = target: T19, PUM1 PUF domain R6-GFA N1043G + Y1044F + Q1047A (UniProt Q14671)
# T19 sequence: T1 sequence with A216G, Y217F, G220A
# [20] = target: T20, PUM1 PUF domain R6-GFM N1043G + Y1044F + Q1047M (UniProt Q14671)
# T20 sequence: T1 sequence with A216G, Y217F, G220M
sequence,measurement,setting,value
GGCUAGAACUAGUGGAUCCCCCGGCGCCCGGCGGCUCGAGCCCGGGUAAGUGGAAAUAGUCUGCAUGCCGCCGGGCGCCAUGCCUGCAGGUCGACUCUAGAAAACAUG,binding signal (log2 enrichment (interaction score)),[1],< -9.6
same,binding signal (log2 enrichment (interaction score)),[2],< -8.42
same,binding signal (log2 enrichment (interaction score)),[3],< -8.12
same,binding signal (log2 enrichment (interaction score)),[4],< -9.09
same,binding signal (log2 enrichment (interaction score)),[5],< -8.76
same,binding signal (log2 enrichment (interaction score)),[6],< -6.53
same,binding signal (log2 enrichment (interaction score)),[7],< -7.3
same,binding signal (log2 enrichment (interaction score)),[8],< -8.26
same,binding signal (log2 enrichment (interaction score)),[9],< -8.53
same,binding signal (log2 enrichment (interaction score)),[10],< -9.12
same,binding signal (log2 enrichment (interaction score)),[11],< -9.36
same,binding signal (log2 enrichment (interaction score)),[12],< -6.93
same,binding signal (log2 enrichment (interaction score)),[13],< -8.62
same,binding signal (log2 enrichment (interaction score)),[14],< -8.45
same,binding signal (log2 enrichment (interaction score)),[15],< -8.09
same,binding signal (log2 enrichment (interaction score)),[16],< -8.76
same,binding signal (log2 enrichment (interaction score)),[17],< -7.04
same,binding signal (log2 enrichment (interaction score)),[18],< -7.88
same,binding signal (log2 enrichment (interaction score)),[19],< -6.39
same,binding signal (log2 enrichment (interaction score)),[20],< -7.48

# Reprinted from the listing for reference:
sequence,measurement,setting,value
GGCUAGAACUAGUGGAUCCCCCGGCGCCCGGCGGCUCGAGCCCGGGUAAGUGGAAAUAGUCUGCAUGCCGCCGGGCGCCAUGCCUGCAGGUCGACUCUAGAAAACAUG,binding signal (log2 enrichment (interaction score)),[16],< -8.76
same,binding signal (log2 enrichment (interaction score)),[17],< -7.04
